# Laboratory results as given in PubChem BioAssay AID504834 (National Center for Advancing Translational Sciences (NCATS), 2011).
# About 22,000 (6.9%) of roughly 320,000 compounds were called active. Inconclusive means that the source gave no clear call. Such entries were picked first, then a sample of the others. Calls follow the shape of the dose curve; as a rule, active = well fitted inhibition curve with a large enough effect; inconclusive = small, poorly fitted or top-dose-only effect, or another doubt; inactive = no such curve, though single readings can be large or run the other way. Where the call is inconclusive, the potency comes from a doubtful curve fit.
# Assay: Primary qHTS for delayed death inhibitors of the malarial parasite plastid, 96 hour incubation
# Details: P. falciparum luciferase reporter growth; series mostly up to 28.7 µM
# In short: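 Parasite growth measured via integrated firefly luciferase reporter in P. falciparum. Infected erythrocytes at 2% hematocrit, 0.05% parasitemia final were treated 96 hours at 37 C under 5% CO2, and luminescence was read.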
# Potency is read from the fitted curve at half-maximal effect.
row,SMILES,Potency
1,O=C(NCc1cccnc1)c1csc2c1CCCC2,inactive
2,CCc1ccc(NC(=O)CSc2nc(O)cc(=O)n2C2CCCC2)cc1,"inconclusive: 18.5 µM [inhibitor, partial curve, poor fit]"
3,O=[N+]([O-])c1ccc(N2CCCNCC2)c2ncccc12,"inconclusive: 18.5 µM [inhibitor, single point]"
4,Cc1ccc(OCCSc2nc3ccccc3n2CC(=O)O)cc1C,active: 11.7 µM
5,O=C(NCCCN1CCCC1=O)C1CCN(S(=O)(=O)c2cccc(Cl)c2Cl)CC1,"inconclusive: 11.7 µM [inhibitor, single point]"
6,Cc1ccc(C(=O)Nc2c(C)n(C)n(-c3ccccc3)c2=O)cc1,inactive
7,CC(=O)N1CCN(C(=O)c2cc(S(=O)(=O)Nc3ccc(S(C)(=O)=O)cc3)ccc2Cl)CC1,"inconclusive: 0.522 µM [inhibitor, full curve, poor fit]"
8,O=C(O)C1CCN(C(=O)CSc2nc3cc(Cl)ccc3c(=O)n2Cc2ccccc2)CC1,"inconclusive: 6.57 µM [inhibitor, partial curve]"
9,CCCCNC(=O)CCC(=O)Nc1ccc2nc(N3CCC(C)CC3)cc(C)c2c1,"inconclusive: 18.5 µM [inhibitor, single point]"
10,COC(=O)c1ccc(S(=O)(=O)N(C2CCCCC2)C2CCCCC2)n1C,"inconclusive: 2.33 µM [inhibitor, full curve]"
11,CCOC(=O)[C@@H]1[C@H]2COc3cc(OC)ccc3[C@@H]2N2C(=O)N(c3cccc(C)c3)C(=O)[C@@]12C,"inconclusive: 0.185 µM [inhibitor, full curve, poor fit]"
12,Cc1nn(Cc2ccc(Cl)cc2Cl)c(C)c1NC(=O)C1C2CCC(O2)C1C(=O)O (stereo not drawn),"inconclusive: 1.47 µM [inhibitor, full curve, poor fit]"
13,CCn1nc(C)c(CN2CCCC(CO)(Cc3cccc(Cl)c3)C2)c1C (stereo not drawn),"inconclusive: 11.7 µM [inhibitor, partial curve]"
14,O=C(NCC1CCCCC1)c1ccccc1[N+](=O)[O-],"inconclusive: 4.15 µM [inhibitor, single point]"
15,CSc1ccccc1OCc1cc(C(=O)N2CCC(Oc3cccnc3)CC2)no1,"inconclusive: 13.1 µM [inhibitor, single point]"
16,Cc1ccc(N2C(=O)N(CC(=O)N3c4ccccc4CC3C)C(=O)C2C)cc1 (stereo not drawn),inactive
17,CCc1nnc(NC(=O)C2CCN(C(=O)c3ccccc3C)CC2)s1,"inconclusive: 14.7 µM [inhibitor, partial curve, poor fit]"
18,CCCCc1nc2ccccc2c(N)c1CCC (tested in a mixture with another compound),"inconclusive: 18.5 µM [inhibitor, single point]"

# Shown bar-delimited: part of the list above.
row | SMILES | Potency
6 | Cc1ccc(C(=O)Nc2c(C)n(C)n(-c3ccccc3)c2=O)cc1 | inactive
7 | CC(=O)N1CCN(C(=O)c2cc(S(=O)(=O)Nc3ccc(S(C)(=O)=O)cc3)ccc2Cl)CC1 | inconclusive: 0.522 µM [inhibitor, full curve, poor fit]
